Results published in paper doi:10.1101/2020.05.08.084814.
Results are given in words; binding and its absence hold for the method and conditions named. Binding seen in cells or lysates may run through a third protein. These calls come from enrichment with a bait or labelling near it, and not all partners need be listed.

By UniProt entry, the sequences of proteins in these tests, tags left out.
UniProt Q91572: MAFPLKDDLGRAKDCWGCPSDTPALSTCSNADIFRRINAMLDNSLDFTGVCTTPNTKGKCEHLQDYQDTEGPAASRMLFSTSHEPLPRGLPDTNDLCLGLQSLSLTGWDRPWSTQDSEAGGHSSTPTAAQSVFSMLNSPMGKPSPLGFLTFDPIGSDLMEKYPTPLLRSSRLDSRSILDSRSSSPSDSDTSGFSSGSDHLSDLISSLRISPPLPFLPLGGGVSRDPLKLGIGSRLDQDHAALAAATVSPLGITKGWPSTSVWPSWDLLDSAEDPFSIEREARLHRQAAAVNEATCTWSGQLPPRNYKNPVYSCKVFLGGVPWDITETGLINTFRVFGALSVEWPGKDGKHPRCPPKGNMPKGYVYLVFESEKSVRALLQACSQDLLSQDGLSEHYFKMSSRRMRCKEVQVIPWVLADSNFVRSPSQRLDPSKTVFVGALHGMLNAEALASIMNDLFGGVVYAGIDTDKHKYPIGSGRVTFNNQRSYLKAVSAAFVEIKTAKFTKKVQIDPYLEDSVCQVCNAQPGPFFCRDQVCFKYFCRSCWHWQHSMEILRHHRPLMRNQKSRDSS
UniProt Q1JQ73: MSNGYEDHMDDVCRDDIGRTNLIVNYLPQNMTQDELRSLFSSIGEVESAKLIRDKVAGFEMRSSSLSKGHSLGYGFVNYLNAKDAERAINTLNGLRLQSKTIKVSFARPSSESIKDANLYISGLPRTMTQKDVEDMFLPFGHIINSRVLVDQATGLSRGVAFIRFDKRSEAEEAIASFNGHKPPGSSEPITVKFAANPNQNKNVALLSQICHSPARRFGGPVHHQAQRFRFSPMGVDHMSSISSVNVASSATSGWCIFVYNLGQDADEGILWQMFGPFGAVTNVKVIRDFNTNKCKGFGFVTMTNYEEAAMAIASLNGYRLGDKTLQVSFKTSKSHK
UniProt Q91903: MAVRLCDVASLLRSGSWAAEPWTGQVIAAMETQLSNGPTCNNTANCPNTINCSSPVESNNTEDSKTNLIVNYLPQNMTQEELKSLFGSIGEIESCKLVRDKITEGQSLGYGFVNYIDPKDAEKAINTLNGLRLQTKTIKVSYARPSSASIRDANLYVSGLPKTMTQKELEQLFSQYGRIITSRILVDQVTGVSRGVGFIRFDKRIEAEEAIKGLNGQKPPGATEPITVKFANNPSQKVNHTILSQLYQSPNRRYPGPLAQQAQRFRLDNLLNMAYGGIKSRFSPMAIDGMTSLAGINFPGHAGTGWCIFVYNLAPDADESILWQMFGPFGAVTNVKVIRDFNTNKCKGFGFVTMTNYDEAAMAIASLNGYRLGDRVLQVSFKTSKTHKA

Legend:
[1] = target: T1, hnRNPAB (40LoVE) (Xenopus laevis (endogenous in oocytes)); test: affinity purification with mass spectrometry
T1 sequence: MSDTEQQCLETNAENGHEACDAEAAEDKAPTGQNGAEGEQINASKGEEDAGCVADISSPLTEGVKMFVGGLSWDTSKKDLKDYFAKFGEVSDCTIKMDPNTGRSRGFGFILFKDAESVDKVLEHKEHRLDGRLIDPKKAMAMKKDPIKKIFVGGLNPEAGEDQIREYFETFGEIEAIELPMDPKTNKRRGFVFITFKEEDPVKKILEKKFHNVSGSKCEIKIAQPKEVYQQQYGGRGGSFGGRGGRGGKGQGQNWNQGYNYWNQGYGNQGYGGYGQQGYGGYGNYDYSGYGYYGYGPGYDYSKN

[2] = target: T2, Stau1 (Staufen1) (Xenopus laevis (endogenous in oocytes)) (UniProt Q6GM35); test: affinity purification with mass spectrometry
T2 sequence: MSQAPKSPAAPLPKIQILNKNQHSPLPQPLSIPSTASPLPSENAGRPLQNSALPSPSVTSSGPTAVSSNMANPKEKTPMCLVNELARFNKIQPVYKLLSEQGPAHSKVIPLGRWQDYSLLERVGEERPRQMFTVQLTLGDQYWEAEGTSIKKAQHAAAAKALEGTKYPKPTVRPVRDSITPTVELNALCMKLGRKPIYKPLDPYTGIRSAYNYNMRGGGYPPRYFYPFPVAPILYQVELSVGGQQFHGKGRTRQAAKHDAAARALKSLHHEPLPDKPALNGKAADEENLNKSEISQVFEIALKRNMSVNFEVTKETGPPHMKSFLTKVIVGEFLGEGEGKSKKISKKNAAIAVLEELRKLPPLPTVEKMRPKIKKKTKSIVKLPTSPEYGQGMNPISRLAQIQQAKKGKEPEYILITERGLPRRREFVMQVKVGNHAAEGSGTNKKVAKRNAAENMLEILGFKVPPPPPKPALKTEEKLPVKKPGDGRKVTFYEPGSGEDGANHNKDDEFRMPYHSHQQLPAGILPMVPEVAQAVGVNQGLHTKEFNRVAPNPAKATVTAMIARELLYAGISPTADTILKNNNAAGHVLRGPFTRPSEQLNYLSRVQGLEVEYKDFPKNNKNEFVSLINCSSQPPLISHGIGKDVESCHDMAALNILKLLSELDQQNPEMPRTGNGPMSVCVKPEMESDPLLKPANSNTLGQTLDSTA

binding [1] | binding [2] | Substance
binds | binds | C14orf166 (Xenopus laevis (endogenous in oocytes))
binds | binds | Cpeb1 (from UniProt Q91572 1-568)
binds | binds | Ddx3 (Xenopus laevis (endogenous in oocytes))
binds | binds | Dynll1 (Xenopus laevis (endogenous in oocytes))
binds | binds | Elavl1 (from UniProt Q1JQ73 1-337)
binds | binds | Elavl2 (from UniProt Q91903 1-389)
binds | binds | Fam98B (Xenopus laevis (endogenous in oocytes))
binds | binds | G3bp2 (Xenopus laevis (endogenous in oocytes))
binds | binds | Kif3b (Xenopus laevis (endogenous in oocytes))
binds | binds | Lsm2 (Xenopus laevis (endogenous in oocytes))
binds | binds | Lsm14A (Xenopus laevis (endogenous in oocytes))
binds | binds | Lsm14B (Xenopus laevis (endogenous in oocytes))
binds | binds | PTB (Ptbp1) (Xenopus laevis (endogenous in oocytes))
binds | binds | Pabp (Xenopus laevis (endogenous in oocytes))
binds | binds | Padi2 (Xenopus laevis (endogenous in oocytes))
binds | binds | Stau2 (Xenopus laevis (endogenous in oocytes))
binds | binds | Tia1 (Xenopus laevis (endogenous in oocytes))
binds | binds | Vera (Igf2bp3) (Xenopus laevis (endogenous in oocytes))
binds | binds | Ybx2 (Xenopus laevis (endogenous in oocytes))
